Earlier results in patent US6974839B2, “Method of delaying ejaculation” (DMI BioSciences, Inc., priority 2001, dated 2005).

System: reuptake of norepinephrine
Settings: cited from earlier work

For COc1cccc(C2(O)CCCCC2CN(C)C)c1 (stereo not shown) [tramadol, 2-[(dimethylamino)methyl]-1-(3-methoxyphenyl)-cyclohexanol], the “inhibition of reuptake of norepinephrine” value is given as “weak inhibition”.
